In the supplement of paper PMC10735217:
Counter-ions that a name gives are not always drawn. The list shows a part of the results. This data set is noisy: repeats of one test often differ as much as different tests do.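 The human kidney-derived cells carry a stably integrated construct of eight TEAD-binding elements driving luciferase, read by luminescence in a drug-repurposing library screen. A compound counts as a hit when its signal is more than five robust Z scores above the plate mean.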

Test system: HEK293A TEAD-LUC reporter
Test: TEAD-luciferase reporter activity (YAP activation), robust Z score vs plate; higher = stronger YAP/TEAD activation
Conditions: 24 h

Row | SMILES | TEAD-luciferase reporter activity (compound concentration: 200 nM) | TEAD-luciferase reporter activity (compound concentration: 2 uM) | TEAD-luciferase reporter activity (compound concentration: 10 uM)
1 | N#C[N-]c1nncs1 [sodium of N-(1,3,4-thiadiazol-2-yl)cyanamide] | inactive: 0.12 | inactive: -0.463 | inactive: -0.837
2 | Cc1cccc(C(=O)NCN2CCC(c3cccc[n+]3[O-])CC2)c1 | inactive: 1.65 | inactive: -0.611 | inactive: -1.12
3 | CN(C)Cc1ccc(CSCCNC(=O)c2ccc[n+]([O-])c2)o1 | inactive: -0.933 | inactive: 1.22 | inactive: -0.129
4 | C[C@H](NC(=O)C(C)(F)F)[C@H](Oc1ccc2c(cnn2-c2cccc(C(=O)N[C@@H]3CCOC3)c2)c1)c1ccc2c(c1)OCCO2 | inactive: 1.67 | – | inactive: 0.622
5 | Cc1cccc(OCCNCc2cc(F)cc(C#N)c2)c1 | inactive: -0.9 | inactive: -0.602 | inactive: 0.15
6 | Cc1ccc(C(=O)N2CCC(=CC(=O)N[C@@H]3CCN(Cc4ccc5cc(F)ccc5c4)C3)CC2)nn1 | inactive: -0.338 | inactive: -1.94 | inactive: -0.431
7 | CCC(CC)(CC(=O)Nc1cccc(OCc2ccc3ccc(F)cc3n2)c1)C(=O)O | inactive: 0.196 | inactive: -0.000773 | inactive: 0.411
8 | Cc1cc(C(=O)NC[C@@H]2CC[C@H]3C[C@@H]2C3(C)C)ccc1Cl | inactive: -0.627 | – | inactive: 2.23
9 | COCCNC(=O)c1ccnc(C(=O)NCCOC)c1 [Lufironil] | inactive: 2.07 | inactive: -0.0229 | inactive: 2
10 | COCC(=O)N1CCCC1C(=O)N1CCC(c2ccccc2)CC1 (configuration not stated) | active: 13 | – | inactive: -0.744
11 | CN(C)CC#CCCC(=O)C(O)(c1ccccc1)C1CCC1 (configuration not stated) | inactive: -0.381 | inactive: -0.91 | inactive: 0.589
12 | CC(C)CCNc1ncccc1C(=O)N1CCN(Cc2ccccc2)CC1 | inactive: -0.41 | inactive: -1.6 | inactive: 0.125
13 | CCCOC(=O)N[C@@H](C(=O)N1CCC[C@H]1C(=O)NC[C@H]1CC[C@H](N)CC1)C(C)(C)SC(C)C | inactive: -0.401 | inactive: -0.551 | inactive: 1.25
14 | CCN(CC)CCN(Cc1ccc(-c2ccc(C(F)(F)F)cc2)cc1)C(=O)Cn1c(SCc2ccc(F)cc2)nc(=O)c2c1CCC2 [Darapladib] | inactive: 0.632 | inactive: 0.0168 | inactive: -0.614
15 | Cc1[nH]c(-c2ccccc2)c(N)c1C(=O)C(C)C [isoprazone] | inactive: -0.784 | inactive: -0.898 | inactive: 0.876
16 | Cc1csc(S(=O)(=O)N(CC(C)C)c2cc3c(cc2OCc2ccc(C(=O)O)cc2)CCC3)n1 | inactive: -0.123 | inactive: 1.29 | inactive: 0.0415
17 | CCOC(=O)c1ccc(/C=C(\C)c2ccc3c(c2)C(C)(C)CCC3(C)C)cc1 | inactive: 0.137 | inactive: -0.912 | inactive: 0.0987
18 | Nc1ccn(C2OC(CO)C(O)C2O)c(=O)n1 (configuration not stated) [cytarabine, Access] | inactive: -1.95 | inactive: -2.23 | inactive: -0.767
19 | O=C(O)CCCNC(=O)c1cccnc1 [Pikamilone] | inactive: -1.47 | inactive: -0.0998 | inactive: -1.98

Some of the entries so far, comma-delimited.
Row,SMILES,TEAD-luciferase reporter activity (compound concentration: 200 nM),TEAD-luciferase reporter activity (compound concentration: 2 uM),TEAD-luciferase reporter activity (compound concentration: 10 uM)
9,COCCNC(=O)c1ccnc(C(=O)NCCOC)c1 [Lufironil],inactive: 2.07,inactive: -0.0229,inactive: 2
10,COCC(=O)N1CCCC1C(=O)N1CCC(c2ccccc2)CC1 (configuration not stated),active: 13,–,inactive: -0.744
11,CN(C)CC#CCCC(=O)C(O)(c1ccccc1)C1CCC1 (configuration not stated),inactive: -0.381,inactive: -0.91,inactive: 0.589
12,CC(C)CCNc1ncccc1C(=O)N1CCN(Cc2ccccc2)CC1,inactive: -0.41,inactive: -1.6,inactive: 0.125

Remaining list, next part

Row | SMILES | TEAD-luciferase reporter activity (compound concentration: 200 nM) | TEAD-luciferase reporter activity (compound concentration: 2 uM) | TEAD-luciferase reporter activity (compound concentration: 10 uM)
20 | CCCCc1cc(CC(C)C)c(C=O)n1Cc1ccc(-c2ccccc2-c2nnn[nH]2)cc1 | inactive: 0.907 | active: 8.51 | active: 9.34
21 | O=C1CCCc2c1ccn2CCN1CCN(c2cccc(Cl)c2)CC1 | inactive: -0.951 | inactive: 1.13 | inactive: -1.53
22 | N#Cc1cnc(Nc2cc(NC[C@H]3CNCCO3)c(C(F)(F)F)cn2)cn1 | inactive: -0.236 | inactive: 0.541 | inactive: -0.558
23 | CC(=O)N1Cc2ccccc2CC2(CCCCN2Cc2ccccc2)C1 (configuration not stated) | inactive: -2.88 | – | inactive: 0.388
24 | C=C1C(=O)O[C@@H]2[C@H]3C(C)=CC[C@@]34O[C@@]4(C)CC[C@@H]12 [Arglabin] | inactive: -0.0753 | inactive: -1.62 | inactive: -2.04
25 | CCO/N=C/c1ccc(OCCC2CCN(c3ccc(C)nn3)CC2)cc1 | inactive: -2.28 | inactive: -0.484 | inactive: 0.226
26 | CC(C)OC(=O)C1=CN(C(=O)c2ccc(F)c(F)c2)CC(C)(C)c2c1[nH]c1ccccc21 [Turofexorate isopropyl] | inactive: -1.64 | inactive: -0.596 | inactive: -2.21
27 | CCCCOc1ccc(OCCCN2CCOCC2)cc1 | inactive: -2.42 | – | inactive: 1.51
28 | CCCCOc1ccc(OCCCN2CCOCC2)cc1 [Pramoxine hydrochloride] | – | inactive: -1.37 | –
29 | O=S(Cc1cc(OCC(F)(F)C(F)(F)C(F)(F)F)ccn1)c1nc2cscc2[nH]1 (configuration not stated) | inactive: 0.902 | inactive: -1.06 | inactive: -0.186
30 | C[C@H]1[C@H](C)CC[C@]2(C(=O)O)CC[C@]3(C)C(=CC[C@@H]4[C@@]5(C)C[C@@H](O)[C@H](O)C(C)(C)[C@@H]5CC[C@]43C)[C@H]12 [Corosolic acid] | inactive: -0.132 | inactive: -0.518 | inactive: -1.6
31 | O=S(=O)(NCl)c1ccccc1 | inactive: -0.555 | inactive: -0.216 | inactive: -0.853
32 | CCC/C=C1\OC(=O)C2=C1CCC=C2 [Ligustilide] | active: 5.32 | inactive: -0.481 | inactive: 1.95
33 | CNc1ncnc2c1ncn2Cc1ccccc1F | inactive: -0.541 | inactive: -1.36 | inactive: 0.773
34 | CC(=O)Nc1ccc(C=NNC(N)=S)cc1 | inactive: 0.0124 | inactive: -0.45 | inactive: -1.11
35 | O=C(c1ccc(O[C@H]2C[C@H](N3CCCCC3)C2)cc1)N1CCOCC1 [analog of UCB-2892] | inactive: 4.81 | inactive: 0.921 | inactive: -0.0101
36 | CN(C)CCOC(C)(c1ccccc1)c1ccccc1 | inactive: -0.23 | inactive: 1.53 | inactive: 0.999
37 | CC(=O)O[C@@H]1[C@H]2OC(C)(C)O[C@H]2O[C@@H]1[C@H]1COC(C)(C)O1 | inactive: -0.112 | inactive: 0.244 | inactive: 0.393
38 | NC(=O)[C@@H]1CN(CCCCC(c2ccc(F)cc2)c2ccc(F)cc2)CCN1CC(=O)Nc1c(Cl)cc(N)cc1Cl | inactive: -2.12 | inactive: -1.12 | inactive: 1.48

Row | SMILES | TEAD-luciferase reporter activity (compound concentration: 200 nM) | TEAD-luciferase reporter activity (compound concentration: 2 uM) | TEAD-luciferase reporter activity (compound concentration: 10 uM)
39 | CC(OCCN1CCCCCC1)(c1ccccc1)c1ccc(Cl)cc1 (configuration not stated) [setastine] | inactive: -0.77 | inactive: -1.8 | inactive: -1.17
40 | O=c1nc[nH]c2c([C@@H]3N[C@H](CO)[C@@H](O)[C@H]3O)c[nH]c12 [forodesine hydrochloride] | inactive: 0.796 | inactive: -0.653 | inactive: 0.454
41 | CCOC(=O)N[C@@H]1CC[C@@H]2[C@@H](C1)C[C@H]1C(=O)O[C@H](C)[C@H]1[C@H]2/C=C/c1ccc(-c2cccc(F)c2)cn1 [Vorapaxar] | inactive: 0.581 | inactive: -3.28 | inactive: 0.125
42 | CCC1Nc2cc(Cl)c(S(N)(=O)=O)cc2S(=O)(=O)N1 (configuration not stated) | inactive: 0.934 | inactive: -0.926 | inactive: 0.112
43 | C[C@@H]1C[C@H]2[C@@H]3CCC4=CC(=O)C=C[C@]4(C)[C@@]3(F)[C@@H](O)C[C@]2(C)[C@H]1C(=O)CO [desoximetasone] | – | inactive: -0.0423 | –
44 | C[C@@H]1C[C@H]2[C@@H]3CCC4=CC(=O)C=C[C@]4(C)[C@@]3(F)[C@@H](O)C[C@]2(C)[C@H]1C(=O)CO | inactive: -0.645 | – | inactive: 1.22
45 | CC1(C)[C@H]2C[C@H](C/C=C\CCCC(=O)O)[C@@H](NC(=O)c3csc4ccc(O)cc34)[C@@H]1C2 | inactive: -1.41 | inactive: 2.05 | inactive: 1.37
46 | CSc1ccc(-c2ccc(S(=O)(=O)N[C@@H](C(=O)O)C(C)C)cc2)cc1 | inactive: -0.639 | inactive: -1 | inactive: 0.564
47 | CN1CCCC1CCNC(=O)c1cn2c3c(c(N4CCC(c5cnccn5)C4)c(F)cc3c1=O)Oc1cc3ccccc3cc1-2 (configuration not stated) | inactive: -1.08 | inactive: 0.177 | inactive: -1.27
48 | COc1cccc(-c2ccc(C(=O)N3CCC(NC(=O)c4ccc(F)cc4)CC3)cc2)c1 | inactive: 2.1 | – | inactive: 1.59
49 | Nc1sc2c(c1C(=O)c1ccc(Cl)cc1)CCCC2 | inactive: -1.24 | inactive: -1.66 | inactive: 0.255
50 | O=C(C(Cl)Cl)N(CCO)Cc1ccc(Oc2ccc([N+](=O)[O-])cc2)cc1 | active: 7.44 | inactive: -1.19 | inactive: 0.115
51 | CC(C)(CNC(N)=O)NCC(O)COC(=O)c1ccccc1F (configuration not stated) | inactive: 1.19 | inactive: -0.0231 | inactive: -0.0537
52 | Cc1ccc2[nH]cc(CC(C)(C)NCC(O)COc3cccc4[nH]c(C)cc34)c2c1 (configuration not stated) | inactive: -2.41 | inactive: -0.569 | inactive: 3.79
53 | CCCCCCN(CCc1ccccc1)C(=O)COc1ccc(CC(OCC)C(=O)O)cc1 (configuration not stated) | inactive: -1.22 | inactive: -0.304 | inactive: 1.28
54 | COc1ccc(NS(=O)(=O)c2c(F)cccc2F)cc1 | inactive: -0.884 | inactive: -2.38 | inactive: -1.03
55 | CCCCC(CC)C1NC(=O)N(SC(Cl)(Cl)Cl)C1=O (configuration not stated) | inactive: -0.291 | inactive: 4.39 | inactive: 2.93
56 | Cc1c2cc[n+]([C@@H]3OC[C@H](O)[C@H](O)[C@H]3O)cc2c(C)c2c1[nH]c1ccc(O)cc12 [Ellipravin] | inactive: -0.751 | inactive: -0.965 | inactive: 1.69
